Measured values reported in article doi:10.1101/2022.09.15.508097.
These are yes or no findings as the source states them, for the method shown. A result given as binding can be weak or reduced; the word gives no strength.

Sequences of proteins named here, by UniProt entry; tags and fusion partners are left off. A change or cut given only in a name is not applied to a line headed by its entry.
UniProt Q6AHZ1: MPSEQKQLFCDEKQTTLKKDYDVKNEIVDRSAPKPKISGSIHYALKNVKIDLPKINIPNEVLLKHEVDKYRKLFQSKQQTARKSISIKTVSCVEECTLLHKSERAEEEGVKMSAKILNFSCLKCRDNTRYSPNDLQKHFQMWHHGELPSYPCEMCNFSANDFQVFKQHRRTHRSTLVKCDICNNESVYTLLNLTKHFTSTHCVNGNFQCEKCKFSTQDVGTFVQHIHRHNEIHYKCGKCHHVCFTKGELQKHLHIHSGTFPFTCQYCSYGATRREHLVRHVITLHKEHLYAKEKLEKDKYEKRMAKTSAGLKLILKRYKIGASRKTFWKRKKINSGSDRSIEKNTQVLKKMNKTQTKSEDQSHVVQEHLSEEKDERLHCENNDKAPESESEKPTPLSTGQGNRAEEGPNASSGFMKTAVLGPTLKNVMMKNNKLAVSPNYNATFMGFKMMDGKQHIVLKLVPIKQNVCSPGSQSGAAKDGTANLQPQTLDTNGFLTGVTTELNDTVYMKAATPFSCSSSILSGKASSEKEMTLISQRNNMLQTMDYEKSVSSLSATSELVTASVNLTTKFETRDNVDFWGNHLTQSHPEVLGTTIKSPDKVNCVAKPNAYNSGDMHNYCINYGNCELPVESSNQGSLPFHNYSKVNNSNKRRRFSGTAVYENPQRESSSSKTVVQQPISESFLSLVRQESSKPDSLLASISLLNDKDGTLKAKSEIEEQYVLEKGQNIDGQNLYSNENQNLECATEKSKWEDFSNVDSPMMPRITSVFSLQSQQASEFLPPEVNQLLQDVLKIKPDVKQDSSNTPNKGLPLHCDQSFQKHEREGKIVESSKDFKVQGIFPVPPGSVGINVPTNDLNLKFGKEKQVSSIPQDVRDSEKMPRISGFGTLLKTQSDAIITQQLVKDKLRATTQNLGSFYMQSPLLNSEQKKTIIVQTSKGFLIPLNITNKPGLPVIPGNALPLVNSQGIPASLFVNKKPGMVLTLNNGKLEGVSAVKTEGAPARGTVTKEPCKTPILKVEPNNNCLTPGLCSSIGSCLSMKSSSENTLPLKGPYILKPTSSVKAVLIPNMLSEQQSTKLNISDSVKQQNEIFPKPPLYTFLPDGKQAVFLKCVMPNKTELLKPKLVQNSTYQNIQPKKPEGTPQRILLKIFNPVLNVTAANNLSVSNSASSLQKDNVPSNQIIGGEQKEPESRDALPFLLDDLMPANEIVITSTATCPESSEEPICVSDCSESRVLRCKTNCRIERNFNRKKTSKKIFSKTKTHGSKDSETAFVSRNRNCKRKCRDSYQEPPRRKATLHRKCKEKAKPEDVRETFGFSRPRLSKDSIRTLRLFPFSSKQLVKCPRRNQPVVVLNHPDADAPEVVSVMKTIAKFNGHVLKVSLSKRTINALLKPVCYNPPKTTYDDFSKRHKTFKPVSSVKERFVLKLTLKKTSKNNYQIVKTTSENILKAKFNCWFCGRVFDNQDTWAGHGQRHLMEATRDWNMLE
UniProt Q9C0D4: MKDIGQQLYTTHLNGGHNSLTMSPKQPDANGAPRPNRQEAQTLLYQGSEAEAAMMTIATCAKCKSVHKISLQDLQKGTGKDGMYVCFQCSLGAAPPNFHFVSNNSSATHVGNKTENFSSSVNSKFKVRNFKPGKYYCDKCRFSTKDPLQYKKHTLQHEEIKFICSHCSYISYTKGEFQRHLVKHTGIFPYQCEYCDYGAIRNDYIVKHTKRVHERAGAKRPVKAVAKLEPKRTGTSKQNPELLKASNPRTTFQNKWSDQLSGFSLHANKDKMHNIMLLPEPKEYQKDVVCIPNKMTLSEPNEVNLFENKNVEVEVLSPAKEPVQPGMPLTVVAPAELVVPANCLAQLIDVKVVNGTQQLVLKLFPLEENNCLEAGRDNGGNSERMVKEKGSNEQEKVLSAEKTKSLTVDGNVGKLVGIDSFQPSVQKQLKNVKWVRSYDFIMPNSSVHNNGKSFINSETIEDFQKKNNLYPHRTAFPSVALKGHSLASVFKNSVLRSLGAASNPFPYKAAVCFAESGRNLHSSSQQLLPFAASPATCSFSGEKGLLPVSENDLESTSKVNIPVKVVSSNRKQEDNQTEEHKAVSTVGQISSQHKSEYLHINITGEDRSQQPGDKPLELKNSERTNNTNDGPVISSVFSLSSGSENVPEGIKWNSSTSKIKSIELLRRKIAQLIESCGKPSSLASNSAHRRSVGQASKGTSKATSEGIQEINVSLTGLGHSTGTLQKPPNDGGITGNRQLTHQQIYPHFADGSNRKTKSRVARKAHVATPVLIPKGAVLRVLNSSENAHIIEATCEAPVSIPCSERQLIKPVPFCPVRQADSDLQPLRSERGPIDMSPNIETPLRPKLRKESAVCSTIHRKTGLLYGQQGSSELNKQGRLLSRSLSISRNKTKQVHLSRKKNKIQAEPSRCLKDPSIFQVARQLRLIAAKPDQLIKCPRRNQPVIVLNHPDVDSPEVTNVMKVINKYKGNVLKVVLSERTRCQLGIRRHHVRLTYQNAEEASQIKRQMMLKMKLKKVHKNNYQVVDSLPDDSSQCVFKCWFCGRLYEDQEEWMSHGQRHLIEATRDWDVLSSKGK
UniProt Q96KQ7: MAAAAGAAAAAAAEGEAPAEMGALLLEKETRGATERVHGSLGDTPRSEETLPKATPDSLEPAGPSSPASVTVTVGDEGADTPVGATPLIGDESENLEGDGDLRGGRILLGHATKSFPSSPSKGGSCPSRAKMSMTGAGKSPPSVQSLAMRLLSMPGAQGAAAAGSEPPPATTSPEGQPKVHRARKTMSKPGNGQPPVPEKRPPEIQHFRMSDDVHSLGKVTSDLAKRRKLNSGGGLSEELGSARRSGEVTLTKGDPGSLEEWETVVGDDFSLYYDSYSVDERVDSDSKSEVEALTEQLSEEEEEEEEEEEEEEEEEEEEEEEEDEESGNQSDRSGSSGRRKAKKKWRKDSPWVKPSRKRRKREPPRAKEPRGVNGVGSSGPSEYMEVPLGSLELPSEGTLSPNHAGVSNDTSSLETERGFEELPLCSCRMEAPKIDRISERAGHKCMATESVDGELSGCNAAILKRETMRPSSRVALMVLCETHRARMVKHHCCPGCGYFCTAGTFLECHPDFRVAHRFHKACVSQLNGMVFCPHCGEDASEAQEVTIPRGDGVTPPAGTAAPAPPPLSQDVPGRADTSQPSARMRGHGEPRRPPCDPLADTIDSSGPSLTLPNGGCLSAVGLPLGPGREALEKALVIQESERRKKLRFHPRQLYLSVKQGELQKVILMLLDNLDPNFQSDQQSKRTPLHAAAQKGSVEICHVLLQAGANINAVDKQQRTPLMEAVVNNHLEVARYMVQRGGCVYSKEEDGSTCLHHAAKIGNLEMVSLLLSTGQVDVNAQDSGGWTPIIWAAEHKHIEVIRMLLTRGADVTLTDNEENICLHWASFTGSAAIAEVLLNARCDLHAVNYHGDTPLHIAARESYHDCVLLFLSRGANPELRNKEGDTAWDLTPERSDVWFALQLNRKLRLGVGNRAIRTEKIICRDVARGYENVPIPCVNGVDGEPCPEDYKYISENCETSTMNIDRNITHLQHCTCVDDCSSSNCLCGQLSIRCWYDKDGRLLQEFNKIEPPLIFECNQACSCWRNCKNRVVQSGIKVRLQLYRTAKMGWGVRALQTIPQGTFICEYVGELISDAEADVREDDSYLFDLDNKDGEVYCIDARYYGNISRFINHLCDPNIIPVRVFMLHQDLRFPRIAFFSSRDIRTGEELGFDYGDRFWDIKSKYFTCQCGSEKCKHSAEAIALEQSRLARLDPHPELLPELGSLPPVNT

What was measured:
Experiment in all cases: fluorescence microscopy-based interaction-trap
[1] = molecular target: TetR-EYFP-ZNF518A^1317–1483 KSS (human) (UniProt Q6AHZ1)
[2] = molecular target: TetR-EYFP-ZNF518A^971–1483 KSS (human) (UniProt Q6AHZ1)
[3] = molecular target: TetR-EYFP-ZNF518A^KSS (human) (UniProt Q6AHZ1)
[4] = molecular target: TetR-EYFP-ZNF518B^KSS/C (human) (UniProt Q9C0D4)
[5] = molecular target: TetR-EYFP-ZNF518B^KSS/NC (human) (UniProt Q9C0D4)

Measured: binding

Halo-G9a (from UniProt Q96KQ7 1-1210) (enzyme)
binds: all assays above
